PubChem BioAssay AID504791 | Drosophila RNAi Screening Center – 2011

Assay: 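Genes of the fly required for silencing by miRNA, siRNA or endo-siRNA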 (primary screen)
System: Drosophila S2-derived reporter cells
Knock-down reagent: long dsRNA against Drosophila genes, about 150-250 ng dsRNA per well (siRNA assay); about 80-120 ng (miRNA assay)
Duration: about 5 days (siRNA assay); about 4 days (miRNA assay)
Conditions: copper sulfate induction of reporters: 25 µM (siRNA assay); 200 mM stated (miRNA assay), 1-2 days before reading
Measured: 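Per-well ratio of Renilla over firefly light, expressed relative to that plate's average ratio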
Units: stable assay Renilla, run 1 in luminescence; stable assay firefly, run 1 in luminescence
Rule for the call: 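a well was a first-pass pick when its plate-scaled ratio rose above 1.5 (siRNA assay) or 1.6 (miRNA assay), or dropped below 0.6; a gene counted only if two separate dsRNAs agreed on retest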
The deposit covers about 23,000 reagents; shown is an unselected part of those that have a named target and a result. Over the whole deposit, 199 (0.86%) are marked active. 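Plate-scaled ratios behind the calls are not deposited; printed light signals are raw; many rows marked increased or decreased are still called inactive.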 Entries without a mark were called inactive. Reagents against one gene are numbered here. The record does not give: the direction of the score.

Pcif1
- stable assay Renilla, run 1: 12378
- stable assay firefly, run 1: 4.18e5

ND-B18
- stable assay Renilla, run 1: 3527
- stable assay firefly, run 1: 3.16e5

CG8993
- stable assay Renilla, run 1: 6339
- stable assay firefly, run 1: 4.22e5

Ccp84Ad #1
- stable assay Renilla, run 1: 4679
- stable assay firefly, run 1: 4.35e5

Ccp84Ad #2
- stable assay Renilla, run 1: 4083
- stable assay firefly, run 1: 3.82e5

CG9391
- stable assay Renilla, run 1: 6096
- stable assay firefly, run 1: 3.57e5

CG31952 #1
- stable assay Renilla, run 1: 7666
- stable assay firefly, run 1: 5.68e5

CG31952 #2
- stable assay Renilla, run 1: 10311
- stable assay firefly, run 1: 5.41e5

Lgr4 #1
- stable assay Renilla, run 1: 7120
- stable assay firefly, run 1: 6.37e5

Lgr4 #2
- stable assay Renilla, run 1: 5510
- stable assay firefly, run 1: 4.48e5

Lgr4 #3
- stable assay Renilla, run 1: 5579
- stable assay firefly, run 1: 4.27e5

Peritrophin-15a
- stable assay Renilla, run 1: 6155
- stable assay firefly, run 1: 3.64e5
